Experimental data reported in article doi:10.1101/2020.09.01.278846 (bioRxiv, 2020).
No constants are given. Whether binding was seen depends on the method and setting.

Protein sequences, listed by entry. Tags and fused reporters are not part of them. Residues count along the entry.
UniProt E9Q7P9, residues 21-1152: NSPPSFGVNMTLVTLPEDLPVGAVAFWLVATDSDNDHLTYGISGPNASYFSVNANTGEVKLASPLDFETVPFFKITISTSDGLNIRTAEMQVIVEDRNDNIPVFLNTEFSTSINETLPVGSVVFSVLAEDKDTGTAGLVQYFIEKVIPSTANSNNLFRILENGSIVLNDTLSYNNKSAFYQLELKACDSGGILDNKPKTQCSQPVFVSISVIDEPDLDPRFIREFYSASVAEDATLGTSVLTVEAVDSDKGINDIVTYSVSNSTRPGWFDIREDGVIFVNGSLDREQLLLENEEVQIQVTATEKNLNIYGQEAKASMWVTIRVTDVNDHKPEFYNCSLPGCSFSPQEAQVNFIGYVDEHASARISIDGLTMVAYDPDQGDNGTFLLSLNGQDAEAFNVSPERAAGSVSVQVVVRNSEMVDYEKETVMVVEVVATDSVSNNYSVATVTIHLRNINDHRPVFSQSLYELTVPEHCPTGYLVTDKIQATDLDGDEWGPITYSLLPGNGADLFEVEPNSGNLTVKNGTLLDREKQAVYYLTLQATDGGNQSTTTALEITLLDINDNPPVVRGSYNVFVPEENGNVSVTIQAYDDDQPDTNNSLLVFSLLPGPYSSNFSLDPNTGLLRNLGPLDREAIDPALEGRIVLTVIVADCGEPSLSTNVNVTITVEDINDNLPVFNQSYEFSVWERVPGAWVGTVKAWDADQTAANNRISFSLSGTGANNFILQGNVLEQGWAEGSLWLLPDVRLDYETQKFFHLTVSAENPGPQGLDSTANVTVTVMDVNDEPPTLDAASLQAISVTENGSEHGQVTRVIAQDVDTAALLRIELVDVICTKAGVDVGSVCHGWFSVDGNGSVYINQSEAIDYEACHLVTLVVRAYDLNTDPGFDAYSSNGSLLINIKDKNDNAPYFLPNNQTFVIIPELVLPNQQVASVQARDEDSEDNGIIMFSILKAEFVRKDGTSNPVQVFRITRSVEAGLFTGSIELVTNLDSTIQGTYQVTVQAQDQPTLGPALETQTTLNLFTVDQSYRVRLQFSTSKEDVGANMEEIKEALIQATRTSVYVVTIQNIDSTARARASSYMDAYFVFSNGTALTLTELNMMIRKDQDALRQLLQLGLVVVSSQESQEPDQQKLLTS

Molecular target: mm PCDH24 EC1-MAD10Fc (mouse) (UniProt E9Q7P9)
Experiment: bead aggregation assay

mm PCDH24 EC1-MAD10Fc (from UniProt E9Q7P9 21-1152) (Fc fusion)
binding: no binding
